Experimental data as given in patent publication US4497799A, “Polypeptide carcinostatic agent” (Suntory Ltd., priority 1981, dated 1985).
Not every detail of the peptide structures is certain; ends, links or a residue may be inferred. Bridges are numbered along the chain shown (N, C = ends). Where no end group is shown, it is not given here.

Assays:
[1] = tested on: EAC (Ehrlich ascites carcinoma); assay: Carcinostatic action in experimental animals, EAC ascites; format: in vivo, mouse (ICR); conditions: for No. of Cells / Decision / T/C %: EAC; for No. of Cells: abdominal fluid day 8; for Decision / T/C %: day 8
[2] = tested on: normal mouse cells (A31 strain, control); assay: Tissue culture growth test, normal mouse cells; format: cell-based; conditions: 2 ppm of SPH
[3] = tested on: Lymphocytic leukemia L 1210; assay: Survival of test animals with Lymphocytic leukemia L 1210; format: in vivo
[4] = tested on: transformed mouse cells (PV4); assay: Tissue culture growth test, transformed mouse cells; format: cell-based
[5] = Isoelectric point of SPH; format: physicochemical
[6] = tested on: Sarcoma 180 A; assay: Carcinostatic action in experimental animals, Sarcoma 180 A ascites; format: in vivo, mouse (ICR); conditions: for No. of Cells / Decision / T/C %: Sarcoma 180 A; for No. of Cells: abdominal fluid day 8; for Decision / T/C %: day 8
[7] = 0.1 mg/Kg i.p. daily for 5 days
[8] = 0.3 mg/Kg i.p. daily for 5 days
[9] = 0.5 mg/Kg i.p. daily for 5 days
[10] = 1.0 mg/Kg i.p. daily for 5 days
[11] = 1.5 mg/Kg i.p. daily for 5 days

KSCCRSTLGRNCYNLCRVRGAQKLCAGVCRCKLTSSGKCPTGFPK (disulfide 3-39, 4-31, 12-29, 16-25) [SPH]
No. of Cells [1, 7]: 3.05 × 10^8 | Decision [1, 7]: + (65-41: +) | T/C % [1, 7]: 58.9% | No. of Cells [1, 8]: 2.12 × 10^8 | Decision [1, 8]: +~++ | T/C % [1, 8]: 40.9% | No. of Cells [1, 9]: 2.35 × 10^7 | Decision [1, 9]: +++ (10-0: +++) | T/C % [1, 9]: 4.5% | No. of Cells [1, 10]: 1.84 × 10^7 | Decision [1, 10]: +++ (10-0: +++) | T/C % [1, 10]: 3.6% | No. of Cells [1, 11]: 1.33 × 10^7 | Decision [1, 11]: +++ (10-0: +++) | T/C % [1, 11]: 2.6% | inhibition of growth of EAC cancerous cells in the abdominal fluid ([1]; dose of 0.1-1.5 mg/Kg): marked inhibition | tumor inhibitory action against EAC ([1]; summary of Table 2): strong tumor inhibitory action | growth of normal mouse cells [2]: not effected | survival of the test animals [3]: increased the survival | growth of transformed mouse cells ([4]; 2 ppm of SPH): below 60% | growth of transformed mouse cells ([4]; 4 ppm of SPH): below 40% | growth of transformed mouse cells ([4]; 6 ppm of SPH): below 3.5% | Isoelectric point [5]: ca. 10 | No. of Cells [6, 7]: 4.70 × 10^8 | Decision [6, 7]: + (65-41: +) | T/C % [6, 7]: 65.8% | No. of Cells [6, 8]: 3.02 × 10^8 | Decision [6, 8]: + (65-41: +) | T/C % [6, 8]: 42.3% | No. of Cells [6, 9]: 1.54 × 10^8 | Decision [6, 9]: ++ (40-11: ++) | T/C % [6, 9]: 21.3% | No. of Cells [6, 10]: 1.06 × 10^8 | Decision [6, 10]: ++ (40-11: ++) | T/C % [6, 10]: 14.8% | No. of Cells [6, 11]: 6.36 × 10^7 | Decision [6, 11]: +++ (10-0: +++) | T/C % [6, 11]: 8.9% | inhibition of growth of Sarcoma 180 A cancerous cells in the abdominal fluid ([6]; dose of 0.1-1.5 mg/Kg): marked inhibition | tumor inhibitory action against Sarcoma 180 A ([6]; summary of Table 2): strong tumor inhibitory action
